Test results reported in patent US20140024592A1, “Modified Relaxin Polypeptides” (Howard Florey Institute of Experimental Physiology and …, priority 2010, published 2014).
Part of at least one peptide drawing is inferred or uncertain, most often the ends.

Experiments:
[1] = tested on: human dermal fibroblasts (BJ3 cells) which express RXFP1; assay: TGF-β1-induced collagen expression in human dermal fibroblasts (hydroxyproline content); type: cell-based; conditions: TGF-β1 2 ng/mL plus peptide 100 ng/mL, 72 hr
Description: The deposited collagen into the cell layer was hydrolysed and analysed for hydroxyproline content, as previously described (Samuel et al., 1996, Endocrinology 137:3884-3890). Hydroxyproline values were then converted to total collagen content by multiplying by a factor of 6.94 (based on hydroxyproline representing approximately 14.4% of the amino acid composition of collagen in most mammalian tissues). These experiments were performed 3-4 separate times in duplicate.

[2] = tested on: adult male Sprague-Dawley rats; assay: Food intake in satiated rats after intracerebroventricular administration; type: in vivo, rat; conditions: first hour after intracerebroventricular injection, analogue 15 1.1 nmol, R3/15 1 nmol, analogue 16 4.8 nmol (10 min prior)
[3] = tested on: adult male Sprague-Dawley rats; assay: Light-dark box; type: in vivo, rat
[4] = tested on: adult male Sprague-Dawley rats; assay: Elevated plus maze; type: in vivo, rat
[5] = tested on: adult male Sprague-Dawley rats; assay: Repeat forced swim test; type: in vivo, rat
[6] = 5 μg intracerebroventricular vs control
[7] = intracerebroventricular injection 10 min prior on second day, vs control

Structure (SMILES): CC[C@H](C)[C@@H]1NC(=O)[C@H](Cc2ccccc2)NC(=O)[C@H](CCC(=O)O)NC(=O)[C@H](CCCNC(=N)N)NC(=O)CNC(=O)[C@@H](NC(=O)[C@H](CC(C)C)NC(=O)[C@H](CCCNC(=N)N)NC(=O)[C@@H](NC(=O)CNC(=O)[C@H](Cc2ccc(O)cc2)NC(=O)[C@@H]2CCCN2C(=O)[C@H](C)NC(=O)[C@H](C)NC(=O)[C@@H](N)CCCNC(=N)N)C(C)C)CSSC[C@H](N)C(=O)N[C@@H](CCCCN)C(=O)N[C@@H](Cc2c[nH]c3ccccc23)C(=O)NCC(=O)N[C@@H](C)C(=O)N[C@@H](CO)C(=O)N[C@@H](CCCCN)C(=O)N[C@@H](CO)C(=O)N[C@@H](CCC(=O)O)C(=O)N[C@@H]([C@@H](C)CC)C(=O)N[C@@H](CO)C(=O)N[C@@H](CO)C(=O)N[C@@H](CC(C)C)C(=O)N[C@H](C(=O)O)CSSC[C@@H](C(=O)NCC(=O)NCC(=O)N[C@@H](CO)C(=O)N[C@@H](CCCNC(=N)N)C(=O)N[C@@H](Cc2c[nH]c3ccccc23)C(=O)O)NC(=O)[C@H]([C@@H](C)O)NC(=O)[C@H](Cc2ccccc2)NC(=O)[C@H]([C@@H](C)CC)NC(=O)[C@H](C(C)C)NC(=O)[C@H](C)NC(=O)[C@H](CCCNC(=N)N)NC1=O [analogue 15, [R3A(11-24,C15→A)B]]
- inhibition of TGF-β1 induced collagen compared to TGF-β1 alone [1]: did not alter the level of TGF-β1-stimulated collagen expression
- amount of food consumed [2]: 3.48 ± 0.81 g
- number of entries into the light compartment ([3]; 5 μg (~1.1 nmol) intracerebroventricular, 10 min prior, vs aCSF control): significantly increased
- latency to enter the light compartment [3, 6]: decreased
- number of moves in the light compartment [3, 6]: significantly increased
- time spent in the light compartment [3, 6]: significantly increased
- total number of moves ([3]; 5 μg intracerebroventricular vs control, data not shown): no significant difference
- time spent in the open arms [4, 6]: significantly increased
- number of entries into the closed arms ([4]; 5 μg intracerebroventricular vs control, measure of motor activity): no significant difference
- number of entries into the open arms ([4]; 5 μg intracerebroventricular, 10 min prior, vs control): significantly increased
- immobility frequency ([5]; data not shown): no significant differences
- latency to first immobility ([5]; data not shown): no significant differences
- immobility in experimentally naïve rats [5, 7]: but not
- immobility in rats that had undergone previous tests of anxiety-like behaviour [5, 7]: significant decrease
